Results deposited as PubChem BioAssay AID686943 (Drosophila RNAi Screening Center, 2013)
Purpose: 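Knockdowns that increase or decrease active ERK after insulin receptor stimulation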 (primary screen). Cell system: Drosophila S2R+ haemocyte-like cells expressing YFP-tagged ERK (Rolled). Knock-down reagent: long dsRNA against Drosophila genes. Conditions: insulin stimulation versus unstimulated cells; dose and duration not given. Detection: 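Antibody staining for doubly phosphorylated ERK divided by ERK-YFP signal, as plate z-scores, in insulin-treated and untreated cells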. Reading the numbers: replicate 1, z-score of dpERK with insulin and replicate 2, z-score of dpERK with insulin: higher = more active ERK per ERK-YFP after insulin; replicate 1, z-score of dpERK under basal conditions: higher = more basal active ERK per ERK-YFP; replicate 1, z-score of ERK-YFP with insulin: higher = more YFP-tagged ERK signal.
In all, the deposit lists about 23,000 reagents; below is a random part of those that have a named target and a result. 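Extra replicates exist only for a retested subset of genes; insulin dose and duration not given; both raised and lowered dpERK matter.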 Not stated in the record: the amount of reagent, the time to read-out.

| Target gene | amplicon | replicate 1, z-score of dpERK with insulin | replicate 2, z-score of dpERK with insulin | replicate 1, z-score of dpERK under basal conditions | replicate 1, z-score of ERK-YFP with insulin |
| --- | --- | --- | --- | --- | --- |
| inc | DRSC17954 | 0.19 | 1.02 | 1.13 | 0.02 |
| inc | DRSC18512 | 0.43 | 1.03 | -0.09 | -2.86 |
| rho | DRSC08734 | 3.54 | 0.69 | -0.84 | -3.43 |
| CG10631 | DRSC02081 | -0.42 | 1.02 | 1.35 | -0.05 |
| CG14006 | DRSC02338 | 0.62 | 0.51 | 0.24 | -0.71 |
| wcy | DRSC20132 | 0.6 | -1.38 | -0.91 | 0.98 |
| beta4GalNAcTA | DRSC05944 | 0.35 | 0.41 | 2.77 | 0.49 |
| ppk13 | DRSC02382 | 0.16 | 0.26 | 0.95 | 0.35 |
| CG33310 | DRSC01897 | 0.52 | 0.63 | 0.24 | -0.32 |
| CG8646 | DRSC07230 | -0.23 | 0.07 | 0.19 | 1.34 |
| l(2)k14505 | DRSC03106 | 0.09 | 0.44 | 0.21 | 0.23 |
| lncRNA:CR30055 | DRSC22439 | 0.35 | 0.26 | 0.49 | -1.35 |
| CG31804 | DRSC22728 | -0.22 | -0.07 | -0.34 | 0.57 |
| CG13623 | DRSC14625 | -2.12 | -0.23 | 0.29 | 1.09 |
| Tsp5D | DRSC18380 | -0.25 | 0.17 | 0.21 | 0.08 |
| CG17097 | DRSC02569 | 0.11 | 0.67 | -0.44 | -0.49 |
| CG1827 | DRSC06719 | -0.13 | 0.32 | -0.17 | 0.67 |
| cona | DRSC16281 | 0.82 | 0.94 | 0.25 | 0.29 |
| Jon25Bii | DRSC03114 | 0.99 | 0.5 | 0.04 | 0.65 |
| Dso1 | DRSC21815 | -2.17 | -0.68 | -1.39 | 0.25 |
| Etfb | DRSC16324 | -0.64 | 0.07 | -0.58 | 0.3 |
| CG9132 | DRSC20159 | 0.02 | -1.61 | -1.17 | 0 |
| Fpgs1 | DRSC19857 | -1.22 | 0.03 | 1 | 0.25 |
| CG7737 | DRSC07033 | 0.39 | -0.25 | -0.46 | -0.08 |
| CG7886 | DRSC16333 | -0.07 | 0.51 | -0.86 | -0.13 |
| CG34203 | DRSC03855 | 0.15 | 0.93 | -1.3 | 1.22 |
| Octalpha2R | DRSC13319 | 1.02 | -0.21 | -0.14 | -0.07 |
| Octalpha2R | DRSC15314 | 0.49 | 0 | 0.88 | 0.58 |
| HGTX | DRSC09319 | 0.96 | 0.83 | 0.58 | -0.32 |
| HGTX | DRSC11181 | -0.85 | 0.77 | 0.32 | -0.02 |
| Ubc87F | DRSC16513 | 2.34 | 0.53 | 0.76 | -0.06 |
| CG31740 | DRSC01619 | -0.48 | 0.9 | 0.05 | -0.7 |
| ND-49 | DRSC17151 | -0.37 | 0.24 | 1.19 | 0.06 |
| msl-1 | DRSC03573 | -0.46 | 0.54 | -0.46 | 2.38 |
| CG13458 | DRSC10005 | 0.16 | -0.12 | 0.36 | 0.53 |
| Cnep1r1 | DRSC20620 | -0.51 | -0.6 | 1.19 | 0.29 |
| bond | DRSC16135 | 0.06 | 0.15 | 0.02 | -0.1 |
| CG1299 | DRSC08300 | 0.85 | 0.55 | -0.4 | 0.23 |
| CG14000 | DRSC02332 | -0.01 | -0.67 | 1.48 | 0.52 |
| DIP1 | DRSC20818 | 0.61 | 0.48 | -0.27 | -0.74 |
| CG43349 | DRSC00039 | 0.25 | -0.27 | -0.13 | 0.13 |
| gpp | DRSC12515 | -2.22 | -0.46 | 0.47 | 2.66 |
| gpp | DRSC12516 | -2.67 | -1.9 | 1.19 | 1.15 |
| smal | DRSC02318 | 0.49 | -0.33 | -0.1 | -0.9 |
| smal | DRSC02319 | -1.15 | 0.08 | -1.17 | 0.48 |
| smal | DRSC02320 | 0.19 | 0.3 | -0.42 | -1.34 |
| smal | DRSC02504 | 0.04 | 0.62 | -0.97 | -0.43 |
| smal | DRSC22866 | -0.29 | -0.96 | -1.99 | 0.51 |
| CG10000 | DRSC14170 | 1.02 | -0.25 | -0.48 | 0.05 |
| by | DRSC16482 | -0.45 | -0.8 | 0.78 | -0.29 |
| CG33107 | DRSC21898 | 0.32 | 1.36 | 0.22 | 0.49 |
| CG14985 | DRSC08078 | 0.27 | -0.2 | 0.7 | 0.57 |
| CG14985 | DRSC08443 | -0.52 | 0.01 | -0.03 | -0.04 |
| CG10226 | DRSC09715 | 0.45 | 0 | 0.31 | 0.13 |
| yip2 | DRSC03640 | 0.93 | -0.53 | 0.3 | 0.47 |
| vito | DRSC21781 | 0.42 | -1.06 | 0.3 | -3.11 |
| CG34435 | DRSC18086 | 0.16 | 0.36 | 1.02 | 0.77 |

Reprinted from the entries so far (8 entries):
| Target gene | amplicon | replicate 1, z-score of dpERK with insulin | replicate 2, z-score of dpERK with insulin | replicate 1, z-score of dpERK under basal conditions | replicate 1, z-score of ERK-YFP with insulin |
| --- | --- | --- | --- | --- | --- |
| Dso1 | DRSC21815 | -2.17 | -0.68 | -1.39 | 0.25 |
| Etfb | DRSC16324 | -0.64 | 0.07 | -0.58 | 0.3 |
| CG9132 | DRSC20159 | 0.02 | -1.61 | -1.17 | 0 |
| Fpgs1 | DRSC19857 | -1.22 | 0.03 | 1 | 0.25 |
| CG7737 | DRSC07033 | 0.39 | -0.25 | -0.46 | -0.08 |
| CG7886 | DRSC16333 | -0.07 | 0.51 | -0.86 | -0.13 |
| CG34203 | DRSC03855 | 0.15 | 0.93 | -1.3 | 1.22 |
| Octalpha2R | DRSC13319 | 1.02 | -0.21 | -0.14 | -0.07 |
